# In PubChem BioAssay (EPA / NIEHS):
# Sequences of proteins named here, by UniProt entry; tags and fusion partners are left off. A change or cut given only in a name is not applied to a line headed by its entry.
# UniProt P10276, whole entry, looked up: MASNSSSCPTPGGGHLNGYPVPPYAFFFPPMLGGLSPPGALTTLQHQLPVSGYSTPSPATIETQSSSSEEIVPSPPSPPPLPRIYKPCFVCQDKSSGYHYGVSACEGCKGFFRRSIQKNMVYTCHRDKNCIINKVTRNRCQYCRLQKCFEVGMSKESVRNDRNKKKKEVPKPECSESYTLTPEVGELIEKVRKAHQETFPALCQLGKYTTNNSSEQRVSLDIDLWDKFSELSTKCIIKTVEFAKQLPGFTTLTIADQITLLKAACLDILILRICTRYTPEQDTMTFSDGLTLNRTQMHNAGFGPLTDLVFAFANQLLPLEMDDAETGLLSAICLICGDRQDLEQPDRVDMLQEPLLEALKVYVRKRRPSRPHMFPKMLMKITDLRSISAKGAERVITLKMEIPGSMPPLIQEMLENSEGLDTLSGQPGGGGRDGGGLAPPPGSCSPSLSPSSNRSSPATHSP
# UniProt O75469: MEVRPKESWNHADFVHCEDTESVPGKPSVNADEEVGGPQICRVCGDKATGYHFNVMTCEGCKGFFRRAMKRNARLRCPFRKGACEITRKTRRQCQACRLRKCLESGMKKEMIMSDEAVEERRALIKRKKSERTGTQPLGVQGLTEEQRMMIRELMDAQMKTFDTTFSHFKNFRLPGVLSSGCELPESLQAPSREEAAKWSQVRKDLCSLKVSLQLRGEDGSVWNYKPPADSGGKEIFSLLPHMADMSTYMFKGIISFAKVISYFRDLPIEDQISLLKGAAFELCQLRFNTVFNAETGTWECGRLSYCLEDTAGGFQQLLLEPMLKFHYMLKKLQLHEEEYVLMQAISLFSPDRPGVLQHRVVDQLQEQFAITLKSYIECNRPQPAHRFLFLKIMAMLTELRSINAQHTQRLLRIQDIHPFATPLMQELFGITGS
# UniProt Q92753: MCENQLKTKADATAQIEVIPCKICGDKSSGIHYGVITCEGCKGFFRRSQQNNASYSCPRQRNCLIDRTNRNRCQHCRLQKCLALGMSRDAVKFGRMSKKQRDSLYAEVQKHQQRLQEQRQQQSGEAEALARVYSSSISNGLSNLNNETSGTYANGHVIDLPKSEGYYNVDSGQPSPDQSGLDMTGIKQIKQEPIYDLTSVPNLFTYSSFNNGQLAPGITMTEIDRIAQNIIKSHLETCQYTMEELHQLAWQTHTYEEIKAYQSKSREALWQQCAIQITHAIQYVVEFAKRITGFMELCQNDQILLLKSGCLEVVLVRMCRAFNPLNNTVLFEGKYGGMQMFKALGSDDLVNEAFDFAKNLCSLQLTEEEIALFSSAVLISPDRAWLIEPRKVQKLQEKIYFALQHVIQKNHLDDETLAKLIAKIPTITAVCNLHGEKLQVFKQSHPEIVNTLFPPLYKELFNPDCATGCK
# UniProt P28702: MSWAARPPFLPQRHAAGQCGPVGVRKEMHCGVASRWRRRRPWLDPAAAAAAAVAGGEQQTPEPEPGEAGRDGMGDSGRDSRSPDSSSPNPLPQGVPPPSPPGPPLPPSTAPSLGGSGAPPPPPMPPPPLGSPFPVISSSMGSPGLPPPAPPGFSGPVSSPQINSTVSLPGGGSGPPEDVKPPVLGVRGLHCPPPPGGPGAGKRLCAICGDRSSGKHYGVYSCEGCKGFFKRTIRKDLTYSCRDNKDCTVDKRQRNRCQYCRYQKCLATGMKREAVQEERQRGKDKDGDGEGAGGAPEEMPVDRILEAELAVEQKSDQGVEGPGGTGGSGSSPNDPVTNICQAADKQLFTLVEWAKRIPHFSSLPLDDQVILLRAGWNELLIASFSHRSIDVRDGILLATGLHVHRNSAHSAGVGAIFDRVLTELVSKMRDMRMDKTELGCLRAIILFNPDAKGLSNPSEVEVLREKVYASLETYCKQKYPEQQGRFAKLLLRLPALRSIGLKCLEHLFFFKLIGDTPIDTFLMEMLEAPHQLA
# UniProt P10827: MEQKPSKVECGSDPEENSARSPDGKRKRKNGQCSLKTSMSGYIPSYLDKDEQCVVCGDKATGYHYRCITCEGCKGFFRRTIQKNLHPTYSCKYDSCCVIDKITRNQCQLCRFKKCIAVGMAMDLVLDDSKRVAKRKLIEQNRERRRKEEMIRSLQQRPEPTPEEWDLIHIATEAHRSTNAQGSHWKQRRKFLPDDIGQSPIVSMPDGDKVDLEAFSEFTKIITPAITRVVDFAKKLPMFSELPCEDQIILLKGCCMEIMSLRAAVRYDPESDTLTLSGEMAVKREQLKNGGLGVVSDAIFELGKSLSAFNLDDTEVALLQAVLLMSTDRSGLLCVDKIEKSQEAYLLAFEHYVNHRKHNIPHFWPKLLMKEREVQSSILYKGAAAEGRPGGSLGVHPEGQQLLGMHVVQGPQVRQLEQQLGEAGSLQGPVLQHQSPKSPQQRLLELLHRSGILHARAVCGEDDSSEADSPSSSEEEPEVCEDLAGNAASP
# UniProt P51449: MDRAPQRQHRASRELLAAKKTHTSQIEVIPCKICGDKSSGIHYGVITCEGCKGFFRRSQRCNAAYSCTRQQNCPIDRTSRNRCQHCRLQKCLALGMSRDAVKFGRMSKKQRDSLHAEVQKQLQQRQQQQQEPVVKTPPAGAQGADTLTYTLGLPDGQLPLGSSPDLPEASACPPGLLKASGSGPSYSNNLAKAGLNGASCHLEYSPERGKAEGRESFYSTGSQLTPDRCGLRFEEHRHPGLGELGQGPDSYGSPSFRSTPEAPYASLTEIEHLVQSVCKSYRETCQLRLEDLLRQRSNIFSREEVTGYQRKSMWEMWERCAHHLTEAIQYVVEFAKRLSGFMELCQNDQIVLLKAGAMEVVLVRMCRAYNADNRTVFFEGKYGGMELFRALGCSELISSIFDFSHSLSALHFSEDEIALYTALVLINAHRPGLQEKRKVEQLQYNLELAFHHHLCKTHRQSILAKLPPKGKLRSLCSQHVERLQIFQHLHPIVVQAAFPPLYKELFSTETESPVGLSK
# UniProt P19793: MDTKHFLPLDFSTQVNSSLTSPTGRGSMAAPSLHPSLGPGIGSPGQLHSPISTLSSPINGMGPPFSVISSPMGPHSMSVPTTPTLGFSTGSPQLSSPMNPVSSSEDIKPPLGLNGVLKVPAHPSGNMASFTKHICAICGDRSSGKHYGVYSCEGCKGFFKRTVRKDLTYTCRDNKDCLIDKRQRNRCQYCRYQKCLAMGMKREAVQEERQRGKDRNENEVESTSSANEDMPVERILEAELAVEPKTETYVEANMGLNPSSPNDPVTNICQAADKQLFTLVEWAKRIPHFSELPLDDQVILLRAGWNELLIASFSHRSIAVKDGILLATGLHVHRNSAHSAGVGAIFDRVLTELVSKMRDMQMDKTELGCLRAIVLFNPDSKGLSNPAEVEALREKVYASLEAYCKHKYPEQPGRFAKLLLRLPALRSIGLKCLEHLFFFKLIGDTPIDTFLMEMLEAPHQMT
# UniProt P11473: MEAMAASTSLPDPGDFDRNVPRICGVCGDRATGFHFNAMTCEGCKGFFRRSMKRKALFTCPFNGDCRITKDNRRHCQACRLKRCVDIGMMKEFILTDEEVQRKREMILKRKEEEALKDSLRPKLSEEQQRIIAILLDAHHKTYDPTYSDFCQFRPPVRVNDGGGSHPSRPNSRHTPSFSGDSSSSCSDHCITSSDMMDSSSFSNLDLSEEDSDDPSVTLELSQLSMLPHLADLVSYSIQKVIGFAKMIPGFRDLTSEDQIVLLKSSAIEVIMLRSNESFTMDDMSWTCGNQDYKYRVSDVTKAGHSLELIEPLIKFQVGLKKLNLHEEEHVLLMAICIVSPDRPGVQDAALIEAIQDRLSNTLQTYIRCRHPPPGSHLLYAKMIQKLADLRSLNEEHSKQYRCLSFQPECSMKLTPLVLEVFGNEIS
# UniProt P13631, whole entry, looked up: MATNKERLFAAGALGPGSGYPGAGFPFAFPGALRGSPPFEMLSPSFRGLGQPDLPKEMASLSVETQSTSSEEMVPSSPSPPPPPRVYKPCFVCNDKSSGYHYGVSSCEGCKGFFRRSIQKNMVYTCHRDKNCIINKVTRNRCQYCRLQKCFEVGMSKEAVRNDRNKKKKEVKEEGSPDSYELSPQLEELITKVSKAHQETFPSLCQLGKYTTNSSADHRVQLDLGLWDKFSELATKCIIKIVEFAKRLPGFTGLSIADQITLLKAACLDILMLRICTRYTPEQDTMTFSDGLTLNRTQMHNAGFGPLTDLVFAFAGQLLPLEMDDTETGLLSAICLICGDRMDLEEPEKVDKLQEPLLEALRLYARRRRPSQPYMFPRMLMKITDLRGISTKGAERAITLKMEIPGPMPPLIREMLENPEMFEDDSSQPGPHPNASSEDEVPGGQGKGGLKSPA
# Where “and” joins values, the source holds several entries; their conditions need not be identical. Identical values can stand only once. Inconclusive means that the source gave no clear call. Such entries were picked first, then a sample of the others. Potencies of inconclusive entries are doubtful fits and often do not repeat. A structure can be active in one record and inactive in another. Calls of active or inactive are those of the source. The calls were made as follows: active = hit-call score of the fitted dose curve at least 0.9, where 1 is the maximum; inconclusive = response in the unintended direction; inactive = score below 0.9.
# Tests used:
# [1] = target: Retinoic acid receptor alpha (Homo sapiens) (UniProt P10276); experiment: ATG_RARa_TRANS: Attagene TRANS-FACTORIAL HepG2 Assay for human Retinoic Acid Receptor alpha (RARa) (AID 2283005);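 as to AC50: potency for increased reporter signal meaning RARa activation over DMSO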
# Summary of the method: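 HepG2 transiently transfected with multiplex GAL4-UAS reporter units including a human RARa–GAL4 chimera; 24 h compound exposure. Reporter mRNA quantified by RT-PCR, 6-FAM labeling and capillary electrophoresis; gain of signal versus DMSO.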
# [2] = target: Nuclear receptor subfamily 1 group I member 2 (Homo sapiens) (UniProt O75469); experiment: ATG_PXR_TRANS: Attagene TRANS-FACTORIAL HepG2 Assay for human Pregnane X Receptor (PXR) (AID 2283008)
# Summary of the method: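 Transient HepG2 transfectants carrying multiplexed reporter transcription units; PXR activity read through a Gal4 chimera. 24 h exposure. RT-PCR/CE fluorescence; upward curve fit referenced to DMSO.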
# [3] = target: human RAR-related Orphan Receptor beta (RORb), RORB (gene 6096) (UniProt Q92753); experiment: ATG_RORb_TRANS: Attagene TRANS-FACTORIAL HepG2 Assay for human RAR-related Orphan Receptor beta (RORb) (AID 2283010);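 as to AC50: potency for increased reporter mRNA meaning activation of RORb-Gal4 chimera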
# Summary of the method: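 Multiplexed transcription-factor reporter assay: HepG2 cells transiently carrying NR-Gal4/GAL4-UAS constructs, 24 h treatment, mRNA quantified by RT-PCR plus capillary electrophoresis fluorescence; activity scored as induction over DMSO.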
# [4] = target: human Retinoid X Receptor beta (RXRb), RXRB (gene 6257) (UniProt P28702); experiment: ATG_RXRb_TRANS: Attagene TRANS-FACTORIAL HepG2 Assay for human Retinoid X Receptor beta (RXRb) (AID 2283013)
# Summary of the method: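 After a 24 h incubation with test chemical, transfected HepG2 cells carrying NR-Gal4 fusions and GAL4-UAS reporter transcription units yield RNA whose reporter cDNA is FAM-labelled, HpaI-cut and sized by capillary electrophoresis; increases over DMSO are scored.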
# [5] = target: human Thyroid Receptor alpha (THRa1), THRA (gene 7067) (UniProt P10827); experiment: ATG_THRa1_TRANS: Attagene TRANS-FACTORIAL HepG2 Assay for human Thyroid Receptor alpha (THRa1) (AID 2283014)
# Summary of the method: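 First, HepG2 cells receive multiple GAL4-UAS reporter units and the chimeric receptor. They are then dosed for 24 h, after which RNA is reverse-transcribed, amplified, labelled, HpaI-cut and sized by capillary electrophoresis; gain relative to DMSO is scored.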
# [6] = target: human RAR-related Orphan Receptor gamma (RORg), RORC (gene 6097) (UniProt P51449); experiment: ATG_RORg_TRANS: Attagene TRANS-FACTORIAL HepG2 Assay for human RAR-related Orphan Receptor gamma (RORg) (AID 2283011);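 as to AC50: potency for induction of reporter transcripts above DMSO so activators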
# Summary of the method: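 Activity is scored as increase in GAL4-UAS reporter mRNA over DMSO, detected by fluorescent RT-PCR and capillary electrophoresis in HepG2 cells transiently expressing a RORg-Gal4 chimera, 24 h after dosing.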
# [7] = target: Retinoic acid receptor RXR-alpha (Homo sapiens) (UniProt P19793); experiment: ATG_RXRa_TRANS: Attagene TRANS-FACTORIAL HepG2 Assay for human Retinoid X Receptor alpha (RXRa) (AID 2283012)
# Summary of the method: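 Chimeric NR-GAL4 trans-activation in HepG2, 24 h treatment; reporter transcripts quantified by fluorescence on capillary electrophoresis, analysed for upward change from DMSO.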
# [8] = target: human Vitamin D Receptor (VDR), VDR (gene 7421) (UniProt P11473); experiment: ATG_VDR_TRANS: Attagene TRANS-FACTORIAL HepG2 Assay for human Vitamin D Receptor (VDR) (AID 2283022)
# Summary of the method: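 Fluorescence of labelled reporter cDNA fragments, resolved by capillary electrophoresis, gives mRNA induction after 24 h treatment of HepG2 cells carrying transfected Gal4-fusion reporter units. Activity is fitted in the positive direction with DMSO as baseline.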
# [9] = target: human Retinoic Acid Receptor gamma (RARg), RARG (gene 5916) (UniProt P13631); experiment: ATG_RARg_TRANS: Attagene TRANS-FACTORIAL HepG2 Assay for human Retinoic Acid Receptor gamma (RARg) (AID 2283009);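 as to AC50: AC50 is for reporter induction above DMSO meaning RARg activation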
# Summary of the method: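 Gain-of-signal relative to DMSO is reported from fluorescent capillary electrophoresis of RT-PCR reporter products. These came from HepG2 cells expressing transfected RARg-GAL4 chimeras with UAS reporters, harvested 24 h after dosing.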
structure (smiles),measurement,setting,value
CN1CN(C)CN(C)C1,outcome,[1],inactive
same,AC50,[2],inconclusive: 100 µM
same,AC50,[3],inconclusive: 0.0823 µM
same,AC50,[4],inconclusive: 23.8 µM
same,AC50,[5],inconclusive: 180 µM
CCCOc1ccc(S(=O)(=O)N2CCN(CC)CC2)cc1-c1nc2c(CC)n(Cc3ccccn3)nc2c(=O)[nH]1,AC50,[1],inconclusive: 80 µM
same,AC50,[2],active: 1.17 µM
same,AC50,[3],inconclusive: 18.7 µM
same,AC50,[6],inconclusive: 8.2 µM
same,outcome,[4],inactive
same,AC50,[5],inconclusive: 5.43 µM
CCCCC1CCCCC(=O)O1 (stereo unspecified),outcome,[1],inactive
same,outcome,[2],inactive
same,outcome,[3],inactive
same,outcome,[7],inactive
same,AC50,[4],inconclusive: 100 µM
same,AC50,[5],inconclusive: 2.58 µM
same,AC50,[8],inconclusive: 100 µM
O=c1[nH]sc2ccccc12,AC50,[1],inconclusive: 19.8 µM
same,AC50,[2],inconclusive: 100 µM
same,outcome,[6],inactive
same,AC50,[7],inconclusive: 0.00305 µM
CS(=O)(=O)OCCCCOS(C)(=O)=O,outcome,[1],inactive
same,AC50,[2],inconclusive: 49.4 µM
same,outcome,[3],inactive
same,outcome,[6],inactive
same,AC50,[7],inconclusive: 100 µM
same,AC50,[8],inconclusive: 100 µM
C=CCOCC(CO)(CO)CO,outcome,[1],inactive
same,AC50,[2],active: 15.1 µM
same,AC50,[3],inconclusive: 19.8 µM
same,AC50,[6],inconclusive: 100 µM
same,outcome,[4],inactive
same,AC50,[5],inconclusive: 100 µM
same,outcome,[8],inactive
CCCCCC(C)O (stereo unspecified),AC50,[1],inconclusive: 100 µM
same,AC50,[2],inconclusive: 0.426 µM
same,AC50,[9],inconclusive: 167 µM
same,AC50,[6],inconclusive: 100 µM
same,AC50,[4],inconclusive: 6.84 µM
same,AC50,[5],inconclusive: 100 µM
same,outcome,[8],inactive
CC(C)c1cc(C(C)C)cc(C(C)C)c1,outcome,[1],inactive
same,AC50,[2],active: 26.9 µM
same,AC50,[3],inconclusive: 100 µM
same,AC50,[7],active: 6.06 µM
same,AC50,[4],active: 0.399 µM
same,outcome,[8],inactive
CCCc1cc(=O)[nH]c(=S)[nH]1,AC50,[1],inconclusive: 0.102 µM
same,AC50,[2],inconclusive: 100 µM
same,AC50,[9],inconclusive: 100 µM
same,AC50,[6],inconclusive: 0.184 µM
same,AC50,[7],inconclusive: 0.00914 µM
same,outcome,[4],inactive
same,AC50,[5],inconclusive: 100 µM
CC(C)(O)CCc1ccccc1,AC50,[1],inconclusive: 176 µM
same,outcome,[2],inactive
same,AC50,[9],inconclusive: 100 µM
same,AC50,[7],inconclusive: 100 µM
same,AC50,[5],inconclusive: 100 µM
same,AC50,[8],inconclusive: 100 µM
O=S(=O)(O)c1ccccc1C=Cc1ccc(-c2ccc(C=Cc3ccccc3S(=O)(=O)O)cc2)cc1,outcome,[1],inactive
same,AC50,[2],inconclusive: 0.00249 µM
same,AC50,[3],inconclusive: 83.5 µM
same,AC50,[7],inconclusive: 0.178 µM
same,AC50,[4],inconclusive: 0.492 µM
CC[C@H]1CC[C@H](NCc2cc3c(cc2OC)[C@H]2C[C@H]2C(=O)N3C)[C@H](c2ccccc2)N1,AC50,[1],inconclusive: 100 µM
same,AC50,[2],active: 3.94 µM
same,AC50,[3],inconclusive: 0.106 µM
same,AC50,[5],inconclusive: 0.734 µM
CCCCCCCCCCCC(C)=O,outcome,[1],inactive
same,outcome,[2],inactive
same,outcome,[3],inactive
FC(F)(F)C(F)(F)CNCC(F)(F)C(F)(F)F,AC50,[1],inconclusive: 267 µM and inconclusive: 271 µM
same,AC50,[9],inconclusive: 150 µM
same,outcome,[9],inactive
same,AC50,[3],inconclusive: 212 µM and inconclusive: 150 µM
same,AC50,[6],inconclusive: 150 µM
same,AC50,[4],inconclusive: 150 µM
same,outcome,[4],inactive
same,AC50,[5],inconclusive: 150 µM
same,AC50,[8],inconclusive: 150 µM
C=C[Si](C)(C)O[Si](C)(C)C=C,outcome,[1],inactive
same,AC50,[2],inconclusive: 27.7 µM
same,outcome,[3],inactive
same,AC50,[4],inconclusive: 100 µM
CC1(C)NC(=O)N(c2ccc([N+](=O)[O-])c(C(F)(F)F)c2)C1=O,AC50,[1],inconclusive: 32.7 µM and inconclusive: 170 µM and inconclusive: 100 µM
same,AC50,[9],inconclusive: 100 µM
same,outcome,[9],inactive
same,AC50,[3],inconclusive: 27.2 µM and inconclusive: 100 µM
same,AC50,[6],inconclusive: 26.7 µM and inconclusive: 100 µM and inconclusive: 30.3 µM
same,AC50,[4],inconclusive: 100 µM
same,AC50,[8],inconclusive: 100 µM
Cc1nn(C)c(Oc2ccccc2)c1C=NOCc1ccc(C(=O)OC(C)(C)C)cc1,outcome,[1],inactive
same,outcome,[2],inactive
same,outcome,[3],inactive
same,AC50,[5],active: 0.109 µM
O=C(c1ccccc1)C1CCCCC1,AC50,[1],inconclusive: 177 µM [middle of 4 runs]
same,AC50,[9],inconclusive: 183 µM and inconclusive: 100 µM
same,outcome,[9],inactive
same,AC50,[3],inconclusive: 19.8 µM and inconclusive: 161 µM and inconclusive: 100 µM
same,AC50,[6],inconclusive: 100 µM and inconclusive: 9.44 µM
same,AC50,[4],active: 121 µM and active: 57 µM and active: 100 µM
same,outcome,[4],inactive
same,AC50,[5],inconclusive: 5.44 µM and inconclusive: 100 µM
same,outcome,[5],inactive
same,AC50,[8],inconclusive: 100 µM
same,outcome,[8],inactive
